Reference: PubChem BioAssay AID1259261 (Sanger Institute, 2017)
Here is a random part of 794 deposited reagents. Of all reagents, 10 (1.3%) got an active call. 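Calls reflect knock-down alone without drug; synergy scores with BYL719, cetuximab or trametinib do not affect calls.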 Entries without a mark were called inactive. Viability is capped at 1. Not stated in the record: the amount of reagent, the time to read-out.

Assay: 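siRNA screen across the kinome for kinases that are essential and partners synergising with drugs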 (primary screen)
Cell system: HCC2998 human colorectal cancer cells
Knock-down reagent: siRNA pool against human genes
Treatment: anchor drugs BYL719 1 µM, cetuximab 5 µg/ml or trametinib 10 nM, each compared with DMSO vehicle
Measurement: 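Viability as fraction of non-targeting control plus robust z-score without drug; synergy scores compare knock-down plus drug against each alone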
Direction: viability z-score, knock-down alone: higher = more viable cells than controls; viability fraction, knock-down alone: higher = more viable cells; synergy score with BYL719: higher = stronger combined killing with BYL719; synergy score with trametinib: higher = stronger combined killing with trametinib; synergy score with cetuximab: higher = stronger combined killing with cetuximab
Call rule: 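a knock-down is called essential if its robust z-score without drug is under -3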
Meaning of the calls: active = essential; inactive = no change

| Target gene | viability z-score, knock-down alone | viability fraction, knock-down alone | synergy score with BYL719 | synergy score with trametinib | synergy score with cetuximab |
| --- | --- | --- | --- | --- | --- |
| NEK7 | 0.762 | 0.944 | 0.000357 | -0.0332 | -0.0266 |
| PRKAG2 | 0.639 | 0.929 | -0.105 | -0.0667 | -0.016 |
| DGKB | -1.93 | 0.607 | -0.00483 | 0.00239 | -0.0527 |
| CDKL4 | -0.652 | 0.767 | 0.0965 | 0.0844 | 0.136 |
| MAPK3 | -0.423 | 0.796 | 0.0304 | 0.0899 | -0.0512 |
| HK2 | -0.463 | 0.791 | 0.0958 | 0.0886 | 0.0969 |
| IPPK | 0.438 | 0.904 | 0.0717 | 0.0928 | 0.148 |

The list goes on; the last 2 above are carried over.
| Target gene | viability z-score, knock-down alone | viability fraction, knock-down alone | synergy score with BYL719 | synergy score with trametinib | synergy score with cetuximab |
| --- | --- | --- | --- | --- | --- |
| HK2 | -0.463 | 0.791 | 0.0958 | 0.0886 | 0.0969 |
| IPPK | 0.438 | 0.904 | 0.0717 | 0.0928 | 0.148 |
| EPHA5 | 0.0844 | 0.859 | -0.0089 | 0.0796 | 0.0384 |
| CHD9 | -0.327 | 0.808 | -0.0519 | 0.0464 | -0.00304 |
| ZC3H11A | -1.39 | 0.675 | -0.00636 | 0.0379 | 0.0763 |
| MAP2K6 | 0.55 | 0.918 | 0.0513 | 0.0395 | 0.019 |
| ATRX | 1.07 | 0.983 | -0.124 | -0.137 | -0.0332 |
| TK2 | -0.694 | 0.762 | -0.2 | -0.00554 | -0.126 |
| ULK3 | -0.518 | 0.784 | 0.0117 | 0.0065 | 0.0691 |
| STK32B | -1.14 | 0.706 | -0.131 | -0.0595 | -0.152 |
| LTK | -0.735 | 0.757 | -0.06 | -0.00329 | -0.0798 |
| ROCK1 | 1.19 | 0.998 | -0.000858 | 0.0556 | -0.0456 |
| GK | 0.349 | 0.893 | -0.16 | -0.109 | -0.0684 |
| PHKG1 | 0.322 | 0.889 | -0.198 | -0.0339 | -0.136 |
| MYO3A | 1.21 | 1 | 0.00127 | -0.039 | 0.0565 |
